# Measurements published in publication PMC5043356.
# The chains behind the UniProt entries cited, without tags or fusion partners. Where a name states a change or a piece, a line headed by the entry shows the natural chain unless it says otherwise.
# UniProt P0A7G6: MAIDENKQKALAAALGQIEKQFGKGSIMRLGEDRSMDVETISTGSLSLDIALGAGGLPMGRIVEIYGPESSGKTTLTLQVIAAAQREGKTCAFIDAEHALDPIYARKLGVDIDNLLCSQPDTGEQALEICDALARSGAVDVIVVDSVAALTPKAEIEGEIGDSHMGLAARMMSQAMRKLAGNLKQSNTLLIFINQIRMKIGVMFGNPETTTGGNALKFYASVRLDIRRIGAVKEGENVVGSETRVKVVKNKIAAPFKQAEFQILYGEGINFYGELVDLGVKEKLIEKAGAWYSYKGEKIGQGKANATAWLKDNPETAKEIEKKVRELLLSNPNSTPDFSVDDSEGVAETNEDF
# UniProt P0AGE0: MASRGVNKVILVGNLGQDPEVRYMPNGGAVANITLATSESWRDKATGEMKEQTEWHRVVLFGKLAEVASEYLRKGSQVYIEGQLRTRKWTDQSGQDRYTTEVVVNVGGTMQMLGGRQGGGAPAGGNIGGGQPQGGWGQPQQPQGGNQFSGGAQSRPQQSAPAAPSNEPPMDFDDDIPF
# Construct, isoform or probe ends are uncertain for at least one entry. For part of these data: Negatives hold for the conditions tested. For part of these data: At least one verdict was read from the data and is not stated in words by the source.
# How the values were obtained:
# [1] = molecular target: RecA (Escherichia coli BJ5183) (UniProt P0A7G6); test: EMSA; conditions: 25 mM Tris pH 7.6, 1 mM MgCl2 (10 mM in supplementary assays), 1 mM DTT, 37 C, 10 min, 12 pmol X1 in 10 ul, 2% native agarose gel, recombinant protein, protein details: His tag (pET28a, Ni purification), single-stranded DNA
# [2] = molecular target: SSB (Escherichia coli BJ5183) (UniProt P0AGE0); test: EMSA; conditions: 10 mM Mg2+, 10-640 pmol SSB; 25 mM Tris pH 7.6, 1 mM MgCl2 (10 mM in supplementary assays), 1 mM DTT, 37 C, 10 min, 12 pmol X1 in 10 ul; 2% native agarose gel; recombinant protein; protein details: His tag (pET28a, Ni purification); single-stranded DNA
sequence,measurement,setting,value
TACGTTAACAAAAAGTCAGATATGGACCTTGCTGCTAAAGGTCTAGGAGCTAAA [X1 (54 nt)],binding result,[1]; ADP (RecA disassembles),no binding
same,binding result,"[1]; ATP (hydrolysed to ADP, RecA disassembles)",no binding
same,binding result,[2],binds
